These are yes or no findings as the source states them, for the method shown. Binding seen in cells or lysates may run through a third protein. Some entries that bind do so weakly or less than the wild type. For part of these data: Tags and fused reporters may be left off the sequences shown.

Protein sequences, listed by entry. Tags and fused reporters are not part of them.
UniProt Q96P20: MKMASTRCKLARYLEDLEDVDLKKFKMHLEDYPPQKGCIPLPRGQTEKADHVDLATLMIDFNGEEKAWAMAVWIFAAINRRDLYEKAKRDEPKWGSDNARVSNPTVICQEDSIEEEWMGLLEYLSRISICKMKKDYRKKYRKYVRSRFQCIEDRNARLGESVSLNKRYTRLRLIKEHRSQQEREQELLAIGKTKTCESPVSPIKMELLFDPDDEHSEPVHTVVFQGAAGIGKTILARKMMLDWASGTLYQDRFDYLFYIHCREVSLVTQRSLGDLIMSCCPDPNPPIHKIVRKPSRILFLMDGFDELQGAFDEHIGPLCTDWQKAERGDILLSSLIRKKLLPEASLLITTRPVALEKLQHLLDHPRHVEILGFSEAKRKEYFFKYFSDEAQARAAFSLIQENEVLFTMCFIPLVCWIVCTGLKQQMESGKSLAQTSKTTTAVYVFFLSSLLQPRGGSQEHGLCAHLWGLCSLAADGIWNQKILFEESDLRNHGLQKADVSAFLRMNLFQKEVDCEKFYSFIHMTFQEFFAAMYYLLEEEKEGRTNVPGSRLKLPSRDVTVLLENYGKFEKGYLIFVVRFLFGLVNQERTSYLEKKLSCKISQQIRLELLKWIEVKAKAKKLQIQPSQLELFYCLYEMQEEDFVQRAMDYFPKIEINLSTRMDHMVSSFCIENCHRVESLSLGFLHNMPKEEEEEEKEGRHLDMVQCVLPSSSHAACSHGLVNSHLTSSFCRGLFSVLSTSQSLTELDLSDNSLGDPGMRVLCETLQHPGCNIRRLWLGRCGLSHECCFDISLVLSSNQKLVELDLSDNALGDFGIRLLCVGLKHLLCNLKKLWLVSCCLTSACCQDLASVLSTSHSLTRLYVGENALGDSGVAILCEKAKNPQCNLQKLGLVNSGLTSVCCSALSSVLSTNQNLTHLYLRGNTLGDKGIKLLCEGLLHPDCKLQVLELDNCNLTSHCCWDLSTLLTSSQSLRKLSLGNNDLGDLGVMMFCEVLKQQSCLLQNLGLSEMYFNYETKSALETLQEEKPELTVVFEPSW
UniProt D4A523: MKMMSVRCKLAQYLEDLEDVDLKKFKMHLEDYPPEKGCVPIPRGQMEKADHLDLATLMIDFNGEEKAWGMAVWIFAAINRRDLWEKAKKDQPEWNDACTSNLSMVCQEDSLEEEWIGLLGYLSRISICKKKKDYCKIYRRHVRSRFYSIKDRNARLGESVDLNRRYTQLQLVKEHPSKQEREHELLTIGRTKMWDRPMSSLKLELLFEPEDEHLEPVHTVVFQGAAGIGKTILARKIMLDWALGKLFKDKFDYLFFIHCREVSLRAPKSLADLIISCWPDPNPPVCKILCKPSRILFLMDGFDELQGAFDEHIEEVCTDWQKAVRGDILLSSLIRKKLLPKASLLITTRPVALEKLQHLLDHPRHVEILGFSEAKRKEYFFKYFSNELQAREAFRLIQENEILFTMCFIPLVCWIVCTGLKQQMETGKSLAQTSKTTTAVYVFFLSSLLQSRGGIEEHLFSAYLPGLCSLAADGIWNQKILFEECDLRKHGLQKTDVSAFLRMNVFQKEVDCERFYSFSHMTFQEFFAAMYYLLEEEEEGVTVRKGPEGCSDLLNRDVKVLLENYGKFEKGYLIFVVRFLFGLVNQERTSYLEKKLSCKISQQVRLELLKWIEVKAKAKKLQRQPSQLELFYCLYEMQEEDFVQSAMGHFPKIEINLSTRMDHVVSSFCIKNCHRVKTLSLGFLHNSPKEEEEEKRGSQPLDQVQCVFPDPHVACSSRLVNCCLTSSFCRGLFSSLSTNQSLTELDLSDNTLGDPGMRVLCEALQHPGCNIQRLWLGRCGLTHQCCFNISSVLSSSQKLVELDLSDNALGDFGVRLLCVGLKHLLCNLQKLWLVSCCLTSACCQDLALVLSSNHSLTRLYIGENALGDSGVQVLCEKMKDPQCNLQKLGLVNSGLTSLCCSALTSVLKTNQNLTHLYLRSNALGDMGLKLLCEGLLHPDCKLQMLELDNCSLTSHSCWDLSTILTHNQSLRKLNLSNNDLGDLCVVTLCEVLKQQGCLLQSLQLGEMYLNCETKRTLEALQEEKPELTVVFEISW

One experiment addresses Flag-NLRP3 (UniProt Q96P20). The experiment is described as follows: co-IP; exogenous: Flag-NLRP3 and HA-SIRT2 co-transfected into HEK-293T; lysate incubated overnight at 4°C with magnetic beads conjugated to anti-Flag antibody; washed five times with TBST; immunoblotting. (In general: In western blotting, separated proteins are transferred to a membrane and probed.)
Experiment [1] has as its target NLRP3 (endogenous, TC28a cells) (human (endogenous in TC28a)) (UniProt Q96P20). The experiment is described as follows: co-IP; endogenous: RC or TC28a lysate incubated at 4°C for 12 h with magnetic beads and NLRP3 primary antibody or IgG; washed five times with TBST; Western blotting.
In experiment [2] the target is NLRP3 (endogenous, primary rat chondrocytes) (rat (endogenous in primary rat chondrocytes)) (UniProt D4A523). The description is as above.

B1: HA-SIRT2 (protein, UniProt Q8IXJ6 1-389)
chain: MAEPDPSHPLETQAGKVQEAQDSDSDSEGGAAGGEADMDFLRNLFSQTLSLGSQKERLLDELTLEGVARYMQSERCRRVICLVGAGISTSAGIPDFRSPSTGLYDNLEKYHLPYPEAIFEISYFKKHPEPFFALAKELYPGQFKPTICHYFMRLLKDKGLLLRCYTQNIDTLERIAGLEQEDLVEAHGTFYTSHCVSASCRHEYPLSWMKEKIFSEVTPKCEDCQSLVKPDIVFFGESLPARFFSCMQSDFLKVDLLLVMGTSLQVQPFASLISKAPLSTPRLLINKEKAGQSDPFLGMIMGLGGGMDFDSKKAYRDVAWLGECDQGCLALAELLGWKKELEDLVRREHASIDAQSGAGVPNPSTSASPKKSPPPAKDEARTTEREKPQ
As to B1, the binding entry with Flag-NLRP3 is on record as “binds”.

B2: SIRT2 (endogenous, TC28a cells) (protein, UniProt Q8IXJ6 1-389)
chain: B1 chain
For the molecule B2, the binding result in experiment [1] is “binds”.

B3: SIRT2 (endogenous, primary rat chondrocytes) (protein, UniProt Q5RJQ4 1-350)
chain: MDFLRNLFTQTLGLGSQKERLLDELTLEGVTRYMQSERCRRVICLVGAGISTSAGIPDFRSPSTGLYANLEKYHLPYPEAIFEISYFKKHPEPFFALAKELYPGQFKPTICHYFIRLLKEKGLLLRCYTQNIDTLERVAGLEPQDLVEAHGTFYTSHCVNTSCGKEYTMSWMKEKIFSEATPKCEKCQNVVKPDIVFFGENLPPRFFSCMQSDFSKVDLLIIMGTSLQVQPFASLISKAPLATPRLLINKEKTGQTDPFLGMMMGLGGGMDFDSKKAYRDVAWLGDCDQGCLALADLLGWKELEDLVRREHANIDAQSGSQASNPSATVSPRKSPPPAKEAARTKEKEEH
With B3, in experiment [2], the binding result is “binds”.

Values taken from article PMC12436004.
